Publication PMC1459871
Results are given in words; binding and its absence hold for the method and conditions named. In cells and extracts the contact can be indirect. Binding can be weak; no strength is given. Where a sequence is shown, tags or fusion partners need not be part of it.

Amino acid sequences for entries named in this document (tags omitted). A change or cut given only in a name is not applied to a line headed by its entry.
UniProt O60565: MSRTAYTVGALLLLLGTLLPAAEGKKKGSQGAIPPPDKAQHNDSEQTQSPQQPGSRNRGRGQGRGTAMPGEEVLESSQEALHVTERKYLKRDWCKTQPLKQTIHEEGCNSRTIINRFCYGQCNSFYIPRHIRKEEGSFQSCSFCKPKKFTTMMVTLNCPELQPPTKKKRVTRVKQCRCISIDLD

Legend:
Test in all cases: pull-down; GST-PIG-2 constructs or GST alone on glutathione-sepharose, incubated 12 h at 4° with HEK 293 lysate expressing full-length YWHAH; washed with NETN (300 mM NaCl, 0.5% NP-40); blot with anti-Myc; only the target purified
[1] = molecular target: GST-PIG-2 (1-100) (human) (UniProt O60565)
GST-PIG-2 (1-67) (human) = GST-PIG-2 (1-67) (human) (UniProt O60565)
[2] = molecular target: GST-PIG-2 full length (1-184) (human) (UniProt O60565)

Measured: binding

B1: Myc-tagged YWHAH (tyrosine 3-monooxygenase/tryptophan 5-monooxygenase activation protein, eta polypeptide; 14-3-3 eta), full length (protein, UniProt Q04917 1-246)
chain: MGDREQLLQRARLAEQAERYDDMASAMKAVTELNEPLSNEDRNLLSVAYKNVVGARRSSWRVISSIEQKTMADGNEKKLEKVKAYREKIEKELETVCNDVLSLLDKFLIKNCNDFQYESKVFYLKMKGDYYRYLAEVASGEKKNSVVEASEAAYKEAFEISKEQMQPTHPIRLGLALNFSVFYYEIQNAPEQACLLAKQAFDDAIAELDTLNEDSYKDSTLIMQLLRDNLTLWTSDQQDEEAGEGN
binds: [1] | GST-PIG-2 (1-67) (human) | [2]
